We go through four substances from publication PMC4257679.

Chains of the proteins cited; added tags and fusions are not shown.
UniProt P62629: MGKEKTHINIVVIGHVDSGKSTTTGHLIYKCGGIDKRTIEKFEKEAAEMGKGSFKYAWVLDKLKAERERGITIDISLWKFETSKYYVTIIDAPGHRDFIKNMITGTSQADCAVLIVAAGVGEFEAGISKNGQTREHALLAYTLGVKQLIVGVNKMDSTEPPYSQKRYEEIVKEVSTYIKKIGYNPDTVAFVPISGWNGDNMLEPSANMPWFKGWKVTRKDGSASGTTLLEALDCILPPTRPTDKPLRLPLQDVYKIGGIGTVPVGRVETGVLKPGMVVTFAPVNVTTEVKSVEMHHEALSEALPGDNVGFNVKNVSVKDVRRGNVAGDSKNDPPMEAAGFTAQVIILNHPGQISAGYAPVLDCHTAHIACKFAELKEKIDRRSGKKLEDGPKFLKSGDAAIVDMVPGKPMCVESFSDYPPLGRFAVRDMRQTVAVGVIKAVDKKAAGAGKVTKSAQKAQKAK
UniProt Q14152: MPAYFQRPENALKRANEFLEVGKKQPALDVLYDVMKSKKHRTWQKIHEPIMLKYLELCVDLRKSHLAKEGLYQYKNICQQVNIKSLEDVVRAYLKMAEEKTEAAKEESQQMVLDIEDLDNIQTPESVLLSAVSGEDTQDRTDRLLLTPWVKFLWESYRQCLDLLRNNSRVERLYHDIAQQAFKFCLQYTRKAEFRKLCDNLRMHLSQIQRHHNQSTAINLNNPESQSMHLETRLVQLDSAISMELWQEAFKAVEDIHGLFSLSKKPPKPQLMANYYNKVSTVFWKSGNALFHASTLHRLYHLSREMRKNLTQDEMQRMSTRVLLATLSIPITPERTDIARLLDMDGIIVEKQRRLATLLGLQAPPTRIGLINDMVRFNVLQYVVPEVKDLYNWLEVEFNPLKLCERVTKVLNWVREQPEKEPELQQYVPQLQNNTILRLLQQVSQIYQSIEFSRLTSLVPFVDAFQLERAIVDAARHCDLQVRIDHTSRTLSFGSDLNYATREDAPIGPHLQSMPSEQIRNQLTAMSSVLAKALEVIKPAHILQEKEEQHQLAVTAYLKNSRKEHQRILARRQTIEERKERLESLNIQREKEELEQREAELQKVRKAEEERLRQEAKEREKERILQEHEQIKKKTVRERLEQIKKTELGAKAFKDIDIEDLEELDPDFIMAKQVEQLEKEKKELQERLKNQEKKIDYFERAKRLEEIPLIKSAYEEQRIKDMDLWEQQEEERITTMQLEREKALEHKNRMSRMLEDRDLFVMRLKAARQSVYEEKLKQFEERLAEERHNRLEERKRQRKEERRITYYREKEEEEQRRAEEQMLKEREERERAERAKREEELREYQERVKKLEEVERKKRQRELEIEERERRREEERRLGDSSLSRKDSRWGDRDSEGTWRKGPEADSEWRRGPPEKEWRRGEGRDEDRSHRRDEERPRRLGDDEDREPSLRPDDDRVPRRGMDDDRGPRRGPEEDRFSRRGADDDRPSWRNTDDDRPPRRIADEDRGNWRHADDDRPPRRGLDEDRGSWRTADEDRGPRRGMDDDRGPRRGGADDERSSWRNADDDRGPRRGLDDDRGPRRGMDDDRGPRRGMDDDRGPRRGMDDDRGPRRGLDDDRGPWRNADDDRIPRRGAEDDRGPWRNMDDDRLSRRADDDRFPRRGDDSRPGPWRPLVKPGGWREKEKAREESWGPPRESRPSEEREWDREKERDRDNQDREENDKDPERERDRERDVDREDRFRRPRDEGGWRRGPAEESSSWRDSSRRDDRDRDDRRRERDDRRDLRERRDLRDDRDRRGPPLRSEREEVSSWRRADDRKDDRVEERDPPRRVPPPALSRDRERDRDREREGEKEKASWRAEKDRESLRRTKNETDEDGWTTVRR
UniProt P03418: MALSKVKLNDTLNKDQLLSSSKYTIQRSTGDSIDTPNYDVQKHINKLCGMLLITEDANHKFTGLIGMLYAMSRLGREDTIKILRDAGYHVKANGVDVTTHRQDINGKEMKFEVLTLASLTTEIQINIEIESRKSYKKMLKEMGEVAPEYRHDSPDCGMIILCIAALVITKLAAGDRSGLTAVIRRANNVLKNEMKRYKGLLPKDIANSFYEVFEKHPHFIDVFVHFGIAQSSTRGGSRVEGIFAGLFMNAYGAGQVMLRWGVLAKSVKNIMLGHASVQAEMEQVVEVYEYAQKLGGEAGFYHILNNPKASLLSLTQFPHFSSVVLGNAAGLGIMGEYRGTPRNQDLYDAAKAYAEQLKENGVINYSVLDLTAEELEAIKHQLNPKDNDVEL
UniProt P03421: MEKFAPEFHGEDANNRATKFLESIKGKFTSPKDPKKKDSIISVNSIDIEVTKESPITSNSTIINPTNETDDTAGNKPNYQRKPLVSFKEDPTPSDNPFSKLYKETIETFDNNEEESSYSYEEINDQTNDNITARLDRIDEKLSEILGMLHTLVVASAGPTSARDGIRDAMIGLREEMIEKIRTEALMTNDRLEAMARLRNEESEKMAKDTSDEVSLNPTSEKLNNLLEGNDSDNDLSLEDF

No constants are given. Whether binding was seen depends on the method and setting. Binding seen in cells or lysates may run through a third protein. Some entries that bind do so weakly or less than the wild type.

The target of assay [1] is eEF1A of BSR-T7 cells (not stated (endogenous in BSR-T7 cells)) (UniProt P62629). The assay is described as follows: co-IP; lysates of BSR-T7 cells transfected with a plasmid for RSV N or RSV P alone (48 h); beads coupled to anti-eEF1A antibody or beads only; blot with anti-RSV polyclonal and anti-eEF1A.
The target in assay [2] is human transcription initiation factor eIF3A (human) (UniProt Q14152). In words: proximity ligation; Duolink II PLA in RSV-infected (MOI 1 pfu/cell) A549 cells fixed with acetone/methanol 24 h after infection; primary antibodies to eEF1A (or eIF3A as control) and to RSV N or P; foci counted per cell.

“RSV N expressed singly from a pTM plasmid (from UniProt P03418 1-391)”: in assay [1], the binding entry is given as “binds”. The same measure, in the same setting: the value for “RSV P expressed singly from a pTM plasmid (from UniProt P03421 1-241)” was “no binding”. Turning to “RSV nucleocapsid (N) protein, from RSV A2 infection (from UniProt P03418 1-391)”, the binding result in assay [2] is recorded as “no binding”. On the same count and under the same terms, the result for “RSV phosphoprotein (P), from RSV A2 infection (from UniProt P03421 1-241)” reads “no binding”.
